Reference: PubChem BioAssay AID1259308 (NCATS, 2017)

Assay: 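Knock-downs that increase output of a recombinant reporter protein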 (primary screen)
Cells: human HEK293 embryonic kidney cells stably expressing firefly luciferase (HEK-CMV-Luc2-Hygro)
Reagents: single siRNA against human genes, 0.8 pmol siRNA per well
Time to read-out: 72 h
Measurement: 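Reporter luminescence and viable-cell signal on separate replicate plates, given as percent of non-targeting control and median/MAD z-scores, plus per-cell luciferase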
Direction: total luciferase, z-score: higher = more reporter protein produced
Call rule: 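Active when the median/MAD z-score for overall luciferase is greater than 3; a gene was taken forward for validation with new siRNAs if at least two of its three siRNAs passed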
Calls: active = raised luciferase; inactive = no rise
The whole screen tested about 59,000 reagents; this is a part drawn at random. About 1,510 of them (2.6%) were called active. 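Calls use total luciferase alone and ignore viability, so some active siRNAs may act by altering cell number.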 Further read-outs or replicates are left out here.

{"gene": "TMEM53", "PubChem SID": "SID160749061", "total luciferase, z-score": 0.205, "outcome": "inactive"}
{"gene": "TMEM53", "PubChem SID": "SID160749062", "total luciferase, z-score": 1.13, "outcome": "inactive"}
{"gene": "TMEM53", "PubChem SID": "SID160749063", "total luciferase, z-score": 0.0129, "outcome": "inactive"}
{"gene": "YIPF1", "PubChem SID": "SID160741664", "total luciferase, z-score": 1.46, "outcome": "inactive"}
{"gene": "YIPF1", "PubChem SID": "SID160741665", "total luciferase, z-score": -2.81, "outcome": "inactive"}
{"gene": "YIPF1", "PubChem SID": "SID160741666", "total luciferase, z-score": -0.717, "outcome": "inactive"}
{"gene": "REC114", "PubChem SID": "SID160763009", "total luciferase, z-score": -0.259, "outcome": "inactive"}
{"gene": "REC114", "PubChem SID": "SID160763010", "total luciferase, z-score": -0.511, "outcome": "inactive"}
{"gene": "REC114", "PubChem SID": "SID160763011", "total luciferase, z-score": -1.1, "outcome": "inactive"}
{"gene": "IGSF23", "PubChem SID": "SID160758555", "total luciferase, z-score": -1.55, "outcome": "inactive"}
{"gene": "IGSF23", "PubChem SID": "SID160758556", "total luciferase, z-score": -1.23, "outcome": "inactive"}
{"gene": "IGSF23", "PubChem SID": "SID160758557", "total luciferase, z-score": 1.39, "outcome": "inactive"}
{"gene": "PLCXD1", "PubChem SID": "SID160743595", "total luciferase, z-score": -1.62, "outcome": "inactive"}
{"gene": "PLCXD1", "PubChem SID": "SID160743596", "total luciferase, z-score": 1.92, "outcome": "inactive"}
{"gene": "PLCXD1", "PubChem SID": "SID160743597", "total luciferase, z-score": -2.93, "outcome": "inactive"}
{"gene": "PKN3", "PubChem SID": "SID160731047", "total luciferase, z-score": -0.72, "outcome": "inactive"}
{"gene": "PKN3", "PubChem SID": "SID160739348", "total luciferase, z-score": 1.63, "outcome": "inactive"}
{"gene": "PKN3", "PubChem SID": "SID160739349", "total luciferase, z-score": 0.669, "outcome": "inactive"}
{"gene": "TRIM52", "PubChem SID": "SID160752786", "total luciferase, z-score": -0.686, "outcome": "inactive"}
{"gene": "TRIM52", "PubChem SID": "SID160752787", "total luciferase, z-score": 0.242, "outcome": "inactive"}
{"gene": "TRIM52", "PubChem SID": "SID160752788", "total luciferase, z-score": 1.91, "outcome": "inactive"}
{"gene": "ARL8B", "PubChem SID": "SID160743226", "total luciferase, z-score": -0.315, "outcome": "inactive"}
{"gene": "ARL8B", "PubChem SID": "SID160743227", "total luciferase, z-score": 1.54, "outcome": "inactive"}
{"gene": "ARL8B", "PubChem SID": "SID160743229", "total luciferase, z-score": -0.138, "outcome": "inactive"}
{"gene": "SLIT1", "PubChem SID": "SID160717010", "total luciferase, z-score": -0.0283, "outcome": "inactive"}
{"gene": "SLIT1", "PubChem SID": "SID160717011", "total luciferase, z-score": -0.033, "outcome": "inactive"}
{"gene": "SLIT1", "PubChem SID": "SID160717012", "total luciferase, z-score": 1.36, "outcome": "inactive"}
{"gene": "STUB1", "PubChem SID": "SID160724252", "total luciferase, z-score": 0.522, "outcome": "inactive"}
{"gene": "STUB1", "PubChem SID": "SID160724253", "total luciferase, z-score": -0.0686, "outcome": "inactive"}
{"gene": "STUB1", "PubChem SID": "SID160724254", "total luciferase, z-score": -0.282, "outcome": "inactive"}
{"gene": "YKT6", "PubChem SID": "SID160728961", "total luciferase, z-score": -0.142, "outcome": "inactive"}
{"gene": "YKT6", "PubChem SID": "SID160728962", "total luciferase, z-score": 2.34, "outcome": "inactive"}
{"gene": "YKT6", "PubChem SID": "SID160728963", "total luciferase, z-score": -0.416, "outcome": "inactive"}

Part of the list above, reformatted.
gene,PubChem SID,"total luciferase, z-score",outcome
ARL8B,SID160743226,-0.315,inactive
ARL8B,SID160743227,1.54,inactive
ARL8B,SID160743229,-0.138,inactive
